According to the supplement of paper PMC10849652:
This is one part of the list.

Chains of the proteins cited; added tags and fusions are not shown. Lines headed by an entry give the natural chain unless they say otherwise; changes in a name come on top.
UniProt Q3KQV9: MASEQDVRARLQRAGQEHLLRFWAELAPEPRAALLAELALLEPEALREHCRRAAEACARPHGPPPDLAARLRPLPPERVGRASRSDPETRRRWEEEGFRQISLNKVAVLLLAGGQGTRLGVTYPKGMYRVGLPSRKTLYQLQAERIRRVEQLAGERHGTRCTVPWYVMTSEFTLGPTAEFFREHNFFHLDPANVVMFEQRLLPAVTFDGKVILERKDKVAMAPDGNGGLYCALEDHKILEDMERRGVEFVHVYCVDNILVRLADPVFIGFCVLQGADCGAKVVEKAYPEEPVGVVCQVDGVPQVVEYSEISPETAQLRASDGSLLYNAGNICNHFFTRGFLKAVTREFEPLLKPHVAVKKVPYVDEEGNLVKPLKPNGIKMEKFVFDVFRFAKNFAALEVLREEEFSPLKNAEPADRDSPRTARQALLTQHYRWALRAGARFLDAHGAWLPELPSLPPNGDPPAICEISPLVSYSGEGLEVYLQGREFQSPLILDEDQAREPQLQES
UniProt Q5T6F2: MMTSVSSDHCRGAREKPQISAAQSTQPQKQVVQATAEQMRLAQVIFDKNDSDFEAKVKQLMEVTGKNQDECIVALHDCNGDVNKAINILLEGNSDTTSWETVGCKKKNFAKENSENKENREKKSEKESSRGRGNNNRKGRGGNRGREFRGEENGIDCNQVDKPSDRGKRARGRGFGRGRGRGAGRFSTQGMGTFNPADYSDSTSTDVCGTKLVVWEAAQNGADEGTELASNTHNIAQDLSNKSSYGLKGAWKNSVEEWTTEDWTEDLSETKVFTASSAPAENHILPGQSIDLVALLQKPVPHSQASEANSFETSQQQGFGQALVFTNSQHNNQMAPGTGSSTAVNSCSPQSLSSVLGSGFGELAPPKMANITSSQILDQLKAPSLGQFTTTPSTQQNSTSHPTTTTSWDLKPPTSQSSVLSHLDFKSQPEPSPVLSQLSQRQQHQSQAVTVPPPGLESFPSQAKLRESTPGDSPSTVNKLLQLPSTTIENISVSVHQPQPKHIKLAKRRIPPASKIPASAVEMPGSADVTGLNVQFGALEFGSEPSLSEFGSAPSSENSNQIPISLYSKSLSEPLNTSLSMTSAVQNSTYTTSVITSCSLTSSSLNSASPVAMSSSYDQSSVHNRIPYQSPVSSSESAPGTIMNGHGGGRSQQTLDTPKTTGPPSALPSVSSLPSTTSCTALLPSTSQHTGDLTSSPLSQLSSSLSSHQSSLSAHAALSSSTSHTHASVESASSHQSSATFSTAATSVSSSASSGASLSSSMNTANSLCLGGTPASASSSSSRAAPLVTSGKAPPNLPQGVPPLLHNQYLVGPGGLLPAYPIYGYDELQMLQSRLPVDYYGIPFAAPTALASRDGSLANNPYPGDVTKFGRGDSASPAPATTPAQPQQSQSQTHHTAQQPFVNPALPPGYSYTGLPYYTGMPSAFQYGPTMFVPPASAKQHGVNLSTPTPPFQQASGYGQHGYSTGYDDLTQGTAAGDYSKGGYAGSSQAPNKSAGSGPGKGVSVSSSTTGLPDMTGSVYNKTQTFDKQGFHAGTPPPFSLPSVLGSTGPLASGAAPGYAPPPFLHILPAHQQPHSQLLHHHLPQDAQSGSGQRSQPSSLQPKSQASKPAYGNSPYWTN
UniProt Q9UJT0: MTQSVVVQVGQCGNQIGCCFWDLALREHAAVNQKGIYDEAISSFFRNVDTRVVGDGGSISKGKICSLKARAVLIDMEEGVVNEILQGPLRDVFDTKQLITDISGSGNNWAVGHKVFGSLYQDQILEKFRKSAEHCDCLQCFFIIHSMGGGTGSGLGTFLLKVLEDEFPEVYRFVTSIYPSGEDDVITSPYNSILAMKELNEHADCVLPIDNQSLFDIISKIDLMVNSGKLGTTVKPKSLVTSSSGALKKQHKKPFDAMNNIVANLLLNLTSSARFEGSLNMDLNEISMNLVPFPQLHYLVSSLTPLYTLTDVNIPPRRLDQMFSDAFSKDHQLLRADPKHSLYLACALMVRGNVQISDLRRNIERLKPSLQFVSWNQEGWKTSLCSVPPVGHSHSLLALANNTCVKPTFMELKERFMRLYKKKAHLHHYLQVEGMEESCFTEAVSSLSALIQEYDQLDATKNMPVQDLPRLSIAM
UniProt Q15819: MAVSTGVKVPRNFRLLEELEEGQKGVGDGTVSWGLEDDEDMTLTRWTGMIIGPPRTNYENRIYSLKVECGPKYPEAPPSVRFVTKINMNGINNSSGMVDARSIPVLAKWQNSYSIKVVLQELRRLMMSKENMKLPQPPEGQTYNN
UniProt Q05086: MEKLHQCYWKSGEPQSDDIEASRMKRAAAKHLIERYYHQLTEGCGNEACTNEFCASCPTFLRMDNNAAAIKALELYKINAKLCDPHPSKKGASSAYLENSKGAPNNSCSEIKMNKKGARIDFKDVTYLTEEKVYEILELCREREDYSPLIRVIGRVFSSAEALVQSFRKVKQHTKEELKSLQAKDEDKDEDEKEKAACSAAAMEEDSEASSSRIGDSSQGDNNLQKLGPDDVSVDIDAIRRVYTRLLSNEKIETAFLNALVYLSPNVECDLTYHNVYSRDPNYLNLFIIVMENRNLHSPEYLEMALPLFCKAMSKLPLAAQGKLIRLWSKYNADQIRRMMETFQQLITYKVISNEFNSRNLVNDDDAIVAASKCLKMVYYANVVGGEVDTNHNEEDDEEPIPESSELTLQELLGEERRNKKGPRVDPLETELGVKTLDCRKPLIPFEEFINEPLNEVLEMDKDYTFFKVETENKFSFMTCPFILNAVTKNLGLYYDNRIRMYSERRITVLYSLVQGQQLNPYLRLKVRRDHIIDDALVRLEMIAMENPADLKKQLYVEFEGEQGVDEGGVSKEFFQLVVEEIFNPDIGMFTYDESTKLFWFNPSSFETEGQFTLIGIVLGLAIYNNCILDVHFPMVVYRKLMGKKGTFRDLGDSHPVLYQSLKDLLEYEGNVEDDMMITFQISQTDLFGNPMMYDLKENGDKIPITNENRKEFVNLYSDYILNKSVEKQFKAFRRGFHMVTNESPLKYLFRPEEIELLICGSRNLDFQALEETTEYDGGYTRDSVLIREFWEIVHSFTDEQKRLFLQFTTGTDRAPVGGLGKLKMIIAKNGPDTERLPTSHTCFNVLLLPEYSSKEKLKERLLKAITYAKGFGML
UniProt Q6IBS0: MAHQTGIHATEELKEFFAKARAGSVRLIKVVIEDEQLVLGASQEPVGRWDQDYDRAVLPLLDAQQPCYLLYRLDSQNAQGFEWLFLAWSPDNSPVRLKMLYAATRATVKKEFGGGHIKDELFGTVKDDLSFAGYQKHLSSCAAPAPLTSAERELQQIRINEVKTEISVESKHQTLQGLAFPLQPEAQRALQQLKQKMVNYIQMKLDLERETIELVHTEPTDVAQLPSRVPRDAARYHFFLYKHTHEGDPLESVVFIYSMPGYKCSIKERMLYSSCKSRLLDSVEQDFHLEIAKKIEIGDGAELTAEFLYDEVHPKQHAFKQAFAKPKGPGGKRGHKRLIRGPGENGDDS
UniProt Q9UBT2: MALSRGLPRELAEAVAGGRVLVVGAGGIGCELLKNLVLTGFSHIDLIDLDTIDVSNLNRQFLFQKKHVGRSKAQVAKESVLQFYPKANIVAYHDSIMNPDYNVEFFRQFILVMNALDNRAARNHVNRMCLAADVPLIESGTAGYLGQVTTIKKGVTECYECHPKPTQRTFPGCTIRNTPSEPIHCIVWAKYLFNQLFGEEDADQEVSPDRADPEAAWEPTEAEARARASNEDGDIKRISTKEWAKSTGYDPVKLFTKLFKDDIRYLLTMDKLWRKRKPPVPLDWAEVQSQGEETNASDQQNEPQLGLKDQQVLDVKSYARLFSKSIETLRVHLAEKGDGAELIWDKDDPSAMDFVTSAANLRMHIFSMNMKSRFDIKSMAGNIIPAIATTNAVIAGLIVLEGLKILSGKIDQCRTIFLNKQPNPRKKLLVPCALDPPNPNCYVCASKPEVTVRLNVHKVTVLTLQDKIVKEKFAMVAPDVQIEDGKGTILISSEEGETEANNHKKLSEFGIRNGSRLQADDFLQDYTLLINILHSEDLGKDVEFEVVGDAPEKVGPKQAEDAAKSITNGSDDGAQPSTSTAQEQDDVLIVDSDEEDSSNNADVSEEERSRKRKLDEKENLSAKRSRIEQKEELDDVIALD
UniProt P62256: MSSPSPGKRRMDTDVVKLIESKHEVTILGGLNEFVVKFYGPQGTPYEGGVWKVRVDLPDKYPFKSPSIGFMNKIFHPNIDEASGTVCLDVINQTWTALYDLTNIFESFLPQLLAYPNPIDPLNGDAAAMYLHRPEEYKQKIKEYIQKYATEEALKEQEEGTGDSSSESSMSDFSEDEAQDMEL
UniProt Q9BVA1, whole entry, looked up: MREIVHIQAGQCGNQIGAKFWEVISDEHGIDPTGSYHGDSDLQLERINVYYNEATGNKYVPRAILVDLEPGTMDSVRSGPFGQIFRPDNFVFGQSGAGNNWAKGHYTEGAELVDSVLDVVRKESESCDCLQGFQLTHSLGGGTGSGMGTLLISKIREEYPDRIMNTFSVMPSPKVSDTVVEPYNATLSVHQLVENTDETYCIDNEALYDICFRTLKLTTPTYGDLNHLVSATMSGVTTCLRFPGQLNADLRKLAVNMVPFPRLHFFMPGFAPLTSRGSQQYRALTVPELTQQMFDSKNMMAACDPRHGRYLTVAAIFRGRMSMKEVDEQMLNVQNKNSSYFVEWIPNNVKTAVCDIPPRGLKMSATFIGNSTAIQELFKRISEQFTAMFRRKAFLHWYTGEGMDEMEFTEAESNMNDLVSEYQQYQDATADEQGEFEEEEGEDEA
UniProt P68036, whole entry, looked up: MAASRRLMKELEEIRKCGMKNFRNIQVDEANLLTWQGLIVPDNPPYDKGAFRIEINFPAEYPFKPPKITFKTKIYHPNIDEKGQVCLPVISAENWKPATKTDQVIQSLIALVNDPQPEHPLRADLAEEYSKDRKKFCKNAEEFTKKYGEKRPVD
UniProt Q5VYS8: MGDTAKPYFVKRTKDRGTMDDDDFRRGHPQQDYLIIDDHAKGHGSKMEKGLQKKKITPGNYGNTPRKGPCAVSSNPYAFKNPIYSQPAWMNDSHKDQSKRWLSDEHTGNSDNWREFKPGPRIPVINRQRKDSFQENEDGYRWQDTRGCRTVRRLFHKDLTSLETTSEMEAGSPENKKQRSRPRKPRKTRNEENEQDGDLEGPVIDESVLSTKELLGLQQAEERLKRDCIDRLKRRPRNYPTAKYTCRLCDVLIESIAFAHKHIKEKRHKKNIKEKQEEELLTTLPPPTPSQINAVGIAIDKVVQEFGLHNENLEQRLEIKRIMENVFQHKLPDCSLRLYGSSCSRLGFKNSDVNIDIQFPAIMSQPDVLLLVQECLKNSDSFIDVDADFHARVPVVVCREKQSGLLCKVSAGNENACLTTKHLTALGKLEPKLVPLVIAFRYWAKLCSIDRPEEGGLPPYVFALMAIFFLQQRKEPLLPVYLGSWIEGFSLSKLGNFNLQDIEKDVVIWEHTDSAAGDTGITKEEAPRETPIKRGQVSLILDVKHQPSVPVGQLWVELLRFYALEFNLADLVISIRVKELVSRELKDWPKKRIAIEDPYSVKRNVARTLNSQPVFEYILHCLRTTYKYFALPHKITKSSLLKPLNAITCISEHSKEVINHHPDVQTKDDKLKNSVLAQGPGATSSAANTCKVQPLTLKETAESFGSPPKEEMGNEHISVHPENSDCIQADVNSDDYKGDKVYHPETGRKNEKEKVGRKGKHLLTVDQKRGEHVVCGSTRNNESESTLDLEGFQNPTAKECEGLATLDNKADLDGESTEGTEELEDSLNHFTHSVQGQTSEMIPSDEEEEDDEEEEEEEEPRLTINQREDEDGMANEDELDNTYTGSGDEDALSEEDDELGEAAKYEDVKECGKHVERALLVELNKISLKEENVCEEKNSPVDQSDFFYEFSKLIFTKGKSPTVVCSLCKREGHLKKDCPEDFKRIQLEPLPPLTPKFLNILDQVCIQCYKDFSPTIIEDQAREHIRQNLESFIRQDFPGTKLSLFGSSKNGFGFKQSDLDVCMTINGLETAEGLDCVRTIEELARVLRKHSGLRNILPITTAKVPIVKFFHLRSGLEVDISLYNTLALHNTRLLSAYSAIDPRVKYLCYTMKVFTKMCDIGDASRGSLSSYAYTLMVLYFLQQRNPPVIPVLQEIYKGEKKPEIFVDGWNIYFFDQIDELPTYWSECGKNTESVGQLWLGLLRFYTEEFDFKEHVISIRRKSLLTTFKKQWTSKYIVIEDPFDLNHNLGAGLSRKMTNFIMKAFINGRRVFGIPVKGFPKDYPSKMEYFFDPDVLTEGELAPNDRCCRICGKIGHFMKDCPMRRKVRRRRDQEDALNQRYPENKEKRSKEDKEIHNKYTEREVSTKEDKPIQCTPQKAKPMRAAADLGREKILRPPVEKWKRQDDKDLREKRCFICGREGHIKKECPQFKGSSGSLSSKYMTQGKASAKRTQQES
UniProt Q9NPD8: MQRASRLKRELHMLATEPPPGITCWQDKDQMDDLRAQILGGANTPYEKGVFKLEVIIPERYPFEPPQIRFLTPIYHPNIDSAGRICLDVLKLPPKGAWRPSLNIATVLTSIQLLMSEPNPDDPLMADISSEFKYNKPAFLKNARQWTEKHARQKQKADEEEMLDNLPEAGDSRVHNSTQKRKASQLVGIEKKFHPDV

compound: c1cn2cc(-c3ccc4cn[nH]c4c3)nc(Nc3ccc(N4CCOCC4)cc3)c2n1 [entospletinib]; test: log2 fold change, soluble protein after heating vs DMSO (PISA); higher = thermal stabilisation; K562 cells, 10 uM, 30 min; active = over 0.2 and 3.5 SD of the protein, either way, in both replicates (recomputed)
How it was run: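 K562 cells at 2×10^6 cells/mL were treated for 30 min with 10 μM compound, and aliquots were heated for 3 min over 48°C-58°C before pooling. Extraction used PBS with 0.5% NP-40 at 4°C, and soluble protein was the supernatant after 21,000xg for 90 min, measured by TMTpro 16plex LC-MS/MS with channel sums equalised. Thermal stability values, relative to control samples and from duplicates, are log2 fold changes.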

log2 fold change, inactive:
TXNDC11 (UniProt Q6PKC3) -0.051, TTF2 (UniProt Q9UNY4) -0.023, UAP1L1 (UniProt Q3KQV9) 0.034, UBAC2 (UniProt Q8NBM4) 0.107, UBAP2 (UniProt Q5T6F2) -0.015, TUBE1 (UniProt Q9UJT0) -0.007, UBE2V2 (UniProt Q15819) 0.06, UBE3A (UniProt Q05086) 0.003, TUBB6 (UniProt K7ES63) -0.066, UBE2F isoform 2 (UniProt Q969M7) 0.037, TWF2 (UniProt Q6IBS0) 0.018, TXNDC15 (UniProt Q96J42) -0.011, UBE2M (UniProt P61081) 0.009, UBA2 (UniProt Q9UBT2) 0.038, TSNAX (UniProt Q99598) 0.035, UBE2H (UniProt P62256) -0.032, TUBB2B (UniProt Q9BVA1) 0.038, TXNDC17 (UniProt Q9BRA2) 0.018, TUBGCP4 (UniProt Q9UGJ1) 0.307, UBE2B (UniProt P63146) -0.032, UBE2L3 isoform 3 (UniProt P68036) 0.018, TUT7 (UniProt Q5VYS8) -0.016, UBE2T (UniProt Q9NPD8) 0.021
